The supplement of paper PMC10849652
The list shows a part of the results.

By UniProt entry, the sequences of proteins in these tests, tags left out. Where a name states a change or a piece, a line headed by the entry shows the natural chain unless it says otherwise.
UniProt Q7Z7H5: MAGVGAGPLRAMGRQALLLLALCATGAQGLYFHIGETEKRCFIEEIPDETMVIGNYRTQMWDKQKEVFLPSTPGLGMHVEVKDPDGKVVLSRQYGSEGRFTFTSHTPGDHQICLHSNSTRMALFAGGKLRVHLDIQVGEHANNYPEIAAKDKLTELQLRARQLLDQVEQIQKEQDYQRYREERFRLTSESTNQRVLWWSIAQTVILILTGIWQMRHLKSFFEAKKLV
UniProt Q96J01: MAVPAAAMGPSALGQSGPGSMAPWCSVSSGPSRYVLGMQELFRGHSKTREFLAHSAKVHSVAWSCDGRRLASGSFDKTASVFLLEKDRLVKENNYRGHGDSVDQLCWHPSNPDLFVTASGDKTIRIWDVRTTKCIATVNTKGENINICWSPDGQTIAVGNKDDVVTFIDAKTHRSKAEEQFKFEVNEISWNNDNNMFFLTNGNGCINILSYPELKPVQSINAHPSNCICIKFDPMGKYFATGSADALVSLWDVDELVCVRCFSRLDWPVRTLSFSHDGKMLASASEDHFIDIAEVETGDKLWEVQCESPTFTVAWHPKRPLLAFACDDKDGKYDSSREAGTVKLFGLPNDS
UniProt P01033: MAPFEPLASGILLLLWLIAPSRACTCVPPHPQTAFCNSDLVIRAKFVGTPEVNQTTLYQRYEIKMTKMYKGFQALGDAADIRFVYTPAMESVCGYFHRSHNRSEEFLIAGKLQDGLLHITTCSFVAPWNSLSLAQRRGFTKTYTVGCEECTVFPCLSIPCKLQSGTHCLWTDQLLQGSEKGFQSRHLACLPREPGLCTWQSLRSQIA
UniProt Q96MV1: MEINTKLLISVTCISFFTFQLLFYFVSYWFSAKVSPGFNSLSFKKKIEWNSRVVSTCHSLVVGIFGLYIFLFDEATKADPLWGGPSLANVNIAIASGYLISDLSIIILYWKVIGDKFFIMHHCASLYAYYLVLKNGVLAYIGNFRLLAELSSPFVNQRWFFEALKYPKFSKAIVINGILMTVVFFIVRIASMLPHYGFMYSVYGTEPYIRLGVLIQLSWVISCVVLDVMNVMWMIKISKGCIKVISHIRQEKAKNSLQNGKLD
UniProt Q5U3C3: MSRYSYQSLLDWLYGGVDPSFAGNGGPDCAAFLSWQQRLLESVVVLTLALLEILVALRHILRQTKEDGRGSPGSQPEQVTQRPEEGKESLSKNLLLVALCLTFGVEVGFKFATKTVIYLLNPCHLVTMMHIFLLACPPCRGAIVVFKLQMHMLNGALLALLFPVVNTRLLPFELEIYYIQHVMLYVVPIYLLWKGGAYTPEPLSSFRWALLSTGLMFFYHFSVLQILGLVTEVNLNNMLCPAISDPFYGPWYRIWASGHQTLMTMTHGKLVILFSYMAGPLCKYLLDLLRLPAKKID
UniProt O14925: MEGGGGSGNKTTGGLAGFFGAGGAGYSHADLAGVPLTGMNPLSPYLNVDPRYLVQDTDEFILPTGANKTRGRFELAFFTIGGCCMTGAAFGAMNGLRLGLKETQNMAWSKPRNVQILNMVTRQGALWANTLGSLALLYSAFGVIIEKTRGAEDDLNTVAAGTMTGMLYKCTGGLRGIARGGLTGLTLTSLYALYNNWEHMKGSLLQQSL
UniProt Q9H7F4: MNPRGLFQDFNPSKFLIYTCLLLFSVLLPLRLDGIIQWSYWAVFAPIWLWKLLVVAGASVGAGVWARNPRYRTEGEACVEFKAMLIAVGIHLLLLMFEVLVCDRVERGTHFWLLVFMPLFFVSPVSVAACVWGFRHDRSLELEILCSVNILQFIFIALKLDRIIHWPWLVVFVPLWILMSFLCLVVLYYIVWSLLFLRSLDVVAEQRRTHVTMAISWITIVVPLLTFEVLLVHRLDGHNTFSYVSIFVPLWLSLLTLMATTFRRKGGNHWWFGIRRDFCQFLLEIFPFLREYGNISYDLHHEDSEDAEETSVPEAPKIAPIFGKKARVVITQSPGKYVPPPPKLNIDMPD
UniProt Q9NX00: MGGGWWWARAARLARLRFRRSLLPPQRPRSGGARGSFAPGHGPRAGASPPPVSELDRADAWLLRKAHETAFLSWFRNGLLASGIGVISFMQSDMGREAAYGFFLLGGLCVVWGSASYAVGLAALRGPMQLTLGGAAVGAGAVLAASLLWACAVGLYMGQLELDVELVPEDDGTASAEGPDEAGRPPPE
UniProt Q9Y2W1: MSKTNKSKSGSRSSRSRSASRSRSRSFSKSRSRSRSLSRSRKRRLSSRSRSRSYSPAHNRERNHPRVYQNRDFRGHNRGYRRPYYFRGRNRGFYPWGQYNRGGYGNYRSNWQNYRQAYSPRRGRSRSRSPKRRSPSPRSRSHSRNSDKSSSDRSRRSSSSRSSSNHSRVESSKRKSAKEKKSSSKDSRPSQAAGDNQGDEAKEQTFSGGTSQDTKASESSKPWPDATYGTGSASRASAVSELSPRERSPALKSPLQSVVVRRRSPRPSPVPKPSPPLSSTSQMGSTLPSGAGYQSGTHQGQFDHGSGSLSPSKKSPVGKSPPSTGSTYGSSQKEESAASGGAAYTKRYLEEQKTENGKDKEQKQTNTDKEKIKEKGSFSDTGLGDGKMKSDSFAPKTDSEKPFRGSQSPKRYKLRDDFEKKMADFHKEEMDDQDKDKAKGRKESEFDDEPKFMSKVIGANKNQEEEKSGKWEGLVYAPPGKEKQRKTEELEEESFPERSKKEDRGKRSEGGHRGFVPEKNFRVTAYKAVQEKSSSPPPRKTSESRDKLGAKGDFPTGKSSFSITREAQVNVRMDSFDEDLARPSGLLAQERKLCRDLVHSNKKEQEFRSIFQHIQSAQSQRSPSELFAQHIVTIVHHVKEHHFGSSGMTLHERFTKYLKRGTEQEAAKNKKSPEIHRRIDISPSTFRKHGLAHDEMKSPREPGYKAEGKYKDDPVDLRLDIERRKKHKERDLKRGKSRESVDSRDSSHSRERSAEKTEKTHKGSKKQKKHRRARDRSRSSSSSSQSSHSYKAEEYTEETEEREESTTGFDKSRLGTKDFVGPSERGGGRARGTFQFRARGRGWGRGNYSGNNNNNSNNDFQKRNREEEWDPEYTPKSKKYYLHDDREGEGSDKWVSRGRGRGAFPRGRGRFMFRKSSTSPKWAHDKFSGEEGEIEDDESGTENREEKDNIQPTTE
UniProt Q9UM00: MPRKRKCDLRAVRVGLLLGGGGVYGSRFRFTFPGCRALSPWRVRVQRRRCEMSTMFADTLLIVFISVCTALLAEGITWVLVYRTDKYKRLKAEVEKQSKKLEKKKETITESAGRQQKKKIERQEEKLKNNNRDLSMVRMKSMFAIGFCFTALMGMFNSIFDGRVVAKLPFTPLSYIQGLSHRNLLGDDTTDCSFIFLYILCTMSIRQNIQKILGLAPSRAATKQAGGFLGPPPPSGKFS
UniProt Q86XR7, whole entry, looked up: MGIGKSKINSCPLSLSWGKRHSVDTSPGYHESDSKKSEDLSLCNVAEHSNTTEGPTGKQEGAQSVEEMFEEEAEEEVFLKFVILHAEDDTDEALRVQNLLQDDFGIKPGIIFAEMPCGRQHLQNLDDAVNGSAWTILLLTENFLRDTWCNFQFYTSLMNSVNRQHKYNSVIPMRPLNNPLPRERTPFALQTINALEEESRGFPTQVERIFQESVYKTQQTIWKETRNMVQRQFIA
UniProt Q9BTF0: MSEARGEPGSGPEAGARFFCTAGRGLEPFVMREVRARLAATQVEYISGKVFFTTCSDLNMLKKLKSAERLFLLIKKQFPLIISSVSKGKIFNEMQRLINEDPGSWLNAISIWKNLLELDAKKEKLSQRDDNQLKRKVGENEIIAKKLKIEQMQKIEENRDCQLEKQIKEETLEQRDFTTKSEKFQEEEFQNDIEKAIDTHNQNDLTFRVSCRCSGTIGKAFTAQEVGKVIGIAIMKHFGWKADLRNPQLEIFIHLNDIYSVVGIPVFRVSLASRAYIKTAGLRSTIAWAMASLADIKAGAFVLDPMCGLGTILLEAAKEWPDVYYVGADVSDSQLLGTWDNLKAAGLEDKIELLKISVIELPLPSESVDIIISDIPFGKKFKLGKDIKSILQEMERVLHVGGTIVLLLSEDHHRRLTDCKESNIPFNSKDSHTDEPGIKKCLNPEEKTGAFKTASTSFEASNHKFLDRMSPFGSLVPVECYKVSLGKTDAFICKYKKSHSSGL
UniProt Q8IYQ7: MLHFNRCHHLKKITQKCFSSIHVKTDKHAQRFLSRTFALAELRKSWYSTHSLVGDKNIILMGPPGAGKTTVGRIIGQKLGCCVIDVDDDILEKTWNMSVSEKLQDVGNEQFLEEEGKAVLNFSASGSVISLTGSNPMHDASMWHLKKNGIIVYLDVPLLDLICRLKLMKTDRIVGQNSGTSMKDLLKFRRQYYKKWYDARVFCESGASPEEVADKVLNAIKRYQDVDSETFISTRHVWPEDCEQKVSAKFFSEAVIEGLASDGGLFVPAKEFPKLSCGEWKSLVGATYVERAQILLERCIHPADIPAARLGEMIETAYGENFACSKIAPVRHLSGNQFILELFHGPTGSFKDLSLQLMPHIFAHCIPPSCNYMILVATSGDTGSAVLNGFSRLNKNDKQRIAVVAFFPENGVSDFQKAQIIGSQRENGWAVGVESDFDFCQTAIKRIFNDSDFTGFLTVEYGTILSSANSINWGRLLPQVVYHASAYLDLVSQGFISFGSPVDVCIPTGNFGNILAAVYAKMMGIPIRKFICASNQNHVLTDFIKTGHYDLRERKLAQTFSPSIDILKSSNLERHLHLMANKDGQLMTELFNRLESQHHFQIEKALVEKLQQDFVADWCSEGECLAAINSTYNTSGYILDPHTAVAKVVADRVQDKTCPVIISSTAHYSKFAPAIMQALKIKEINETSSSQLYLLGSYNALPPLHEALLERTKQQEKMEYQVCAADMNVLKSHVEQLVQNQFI
UniProt Q7Z7N9: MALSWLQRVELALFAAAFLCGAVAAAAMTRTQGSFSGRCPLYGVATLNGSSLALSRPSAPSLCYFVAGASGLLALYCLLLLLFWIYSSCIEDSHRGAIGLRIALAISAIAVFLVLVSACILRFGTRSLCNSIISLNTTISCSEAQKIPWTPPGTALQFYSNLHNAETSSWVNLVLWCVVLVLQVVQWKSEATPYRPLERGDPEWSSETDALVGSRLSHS
UniProt Q86UE8, whole entry, looked up: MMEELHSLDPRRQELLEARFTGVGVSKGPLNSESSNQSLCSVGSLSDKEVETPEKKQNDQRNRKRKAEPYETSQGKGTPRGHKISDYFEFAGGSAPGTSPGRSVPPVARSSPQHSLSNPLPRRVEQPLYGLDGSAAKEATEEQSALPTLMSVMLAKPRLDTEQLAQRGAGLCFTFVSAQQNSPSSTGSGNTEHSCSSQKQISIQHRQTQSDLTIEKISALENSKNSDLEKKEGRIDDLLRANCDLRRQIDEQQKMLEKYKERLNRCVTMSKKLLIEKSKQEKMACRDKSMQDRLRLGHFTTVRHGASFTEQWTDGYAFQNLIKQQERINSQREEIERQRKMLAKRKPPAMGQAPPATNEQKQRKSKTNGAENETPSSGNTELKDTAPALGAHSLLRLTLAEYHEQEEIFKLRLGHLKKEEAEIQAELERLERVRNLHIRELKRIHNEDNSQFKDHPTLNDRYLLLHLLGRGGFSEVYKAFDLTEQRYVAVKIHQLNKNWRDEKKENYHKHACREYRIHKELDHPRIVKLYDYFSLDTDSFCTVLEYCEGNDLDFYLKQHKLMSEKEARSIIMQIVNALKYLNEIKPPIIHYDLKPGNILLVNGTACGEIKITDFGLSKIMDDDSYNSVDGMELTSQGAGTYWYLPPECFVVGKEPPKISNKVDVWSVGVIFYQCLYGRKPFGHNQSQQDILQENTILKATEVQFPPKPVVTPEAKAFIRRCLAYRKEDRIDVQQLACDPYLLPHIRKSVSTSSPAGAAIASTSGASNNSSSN
UniProt Q9BSF4: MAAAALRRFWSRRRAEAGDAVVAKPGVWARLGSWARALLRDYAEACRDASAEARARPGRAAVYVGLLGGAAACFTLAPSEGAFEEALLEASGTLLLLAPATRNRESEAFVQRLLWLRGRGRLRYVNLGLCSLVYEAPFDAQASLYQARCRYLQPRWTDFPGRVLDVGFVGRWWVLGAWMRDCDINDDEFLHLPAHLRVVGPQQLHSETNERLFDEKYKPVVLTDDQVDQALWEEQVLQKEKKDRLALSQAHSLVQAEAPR
UniProt Q969X1: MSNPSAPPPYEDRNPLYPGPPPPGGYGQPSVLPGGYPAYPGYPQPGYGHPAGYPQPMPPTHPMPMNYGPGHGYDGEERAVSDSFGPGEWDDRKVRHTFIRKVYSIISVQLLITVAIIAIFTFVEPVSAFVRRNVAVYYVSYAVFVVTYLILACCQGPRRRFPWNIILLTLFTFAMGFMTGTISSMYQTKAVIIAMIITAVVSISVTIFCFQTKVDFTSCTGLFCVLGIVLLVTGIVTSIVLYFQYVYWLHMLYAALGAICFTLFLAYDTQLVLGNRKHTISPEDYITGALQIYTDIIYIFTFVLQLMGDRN
UniProt Q15363: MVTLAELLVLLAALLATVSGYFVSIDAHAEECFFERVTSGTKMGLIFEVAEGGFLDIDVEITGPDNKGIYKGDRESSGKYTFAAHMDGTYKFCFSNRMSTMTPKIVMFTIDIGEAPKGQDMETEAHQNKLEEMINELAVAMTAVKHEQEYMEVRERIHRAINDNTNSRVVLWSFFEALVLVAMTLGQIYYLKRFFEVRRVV

Key:
Test in all cases: log2 fold change, soluble protein after heating vs DMSO (PISA); higher = thermal stabilisation; K562 lysate, 10 uM; active = over 0.2 and 3.5 SD of the protein, either way, in both replicates (recomputed)
nilotinib = compound: Cc1cn(-c2cc(NC(=O)c3ccc(C)c(Nc4nccc(-c5cccnc5)n4)c3)cc(C(F)(F)F)c2)cn1 [nilotinib]
Procedure, shortened: (§1)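 Soluble protein was defined as the supernatant remaining after 21,000xg for 90 min, following pooling of heated aliquots and adjustment to 0.5% NP-40 at 4°C. Before that, crude K562 extract at 1 mg/mL protein in PBS pH 7.4 with 1 mM MgCl2 was treated with 10 μM compound for 30 min and heated for 3 min across 48°C-58°C. Quantification used TMTpro 16plex LC-MS/MS with channel sums equalised, and values are log-two fold changes in thermal stability relative to solvent controls from duplicates.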

[1] = compound: Cc1nc(Nc2n[nH]c3c2CN(C(=O)N[C@H](CN(C)C)c2ccccc2)C3(C)C)c2sccc2n1
Procedure, shortened: as §1

dasatinib = compound: Cc1nc(Nc2ncc(C(=O)Nc3c(C)cccc3Cl)s2)cc(N2CCN(CCO)CC2)n1 [dasatinib]
Procedure, shortened: as §1

[2] = compound: Cc1ncc(-c2ccnc(Nc3ccc(S(C)(=O)=O)cc3)n2)n1C(C)C
Procedure, shortened: as §1

[3] = compound: Cn1cc(-c2ccc3c(c2)CCN3C(=O)Cc2cccc(C(F)(F)F)c2)c2c(N)ncnc21
Procedure, shortened: as §1

quisinostat = compound: Cn1cc(CNCC2CCN(c3ncc(C(=O)NO)cn3)CC2)c2ccccc21 [quisinostat]
Procedure, shortened: as §1

tipifarnib = compound: Cn1cncc1[C@@](N)(c1ccc(Cl)cc1)c1ccc2c(c1)c(-c1cccc(Cl)c1)cc(=O)n2C [tipifarnib]
Procedure, shortened: as §1

[4] = compound: NC(=O)Nc1cc(-c2cccc(F)c2)sc1C(=O)N[C@H]1CCCNC1
Procedure, shortened: as §1

[5] = compound: NC(=O)c1cnc(N[C@@H]2CCCC[C@@H]2N)nc1Nc1cccc(-n2nccn2)c1
Procedure, shortened: as §1

[6] = compound: NC1(c2ccc(-c3nc4ccn5c(=O)[nH]nc5c4cc3-c3ccccc3)cc2)CCC1
Procedure, shortened: as §1

Measured: log2 fold change

THEM6 (UniProt Q8WUY1)
inactive: nilotinib 0.054 | [1] 0.032 | dasatinib -0.056 | [2] -0.055 | [3] -0.078 | quisinostat 0.077 | tipifarnib 0.025 | [4] -0.003 | [5] 0.001 | [6] 0.082

TLR9 isoform 4 (UniProt Q9NR96)
inactive: nilotinib -0.036 | [1] 0.021 | dasatinib -0.006 | [2] -0.03 | [3] -0.06 | quisinostat -0.027 | tipifarnib -0.046 | [4] -0.005 | [5] -0.009 | [6] 0.028

TMED4 (UniProt Q7Z7H5)
inactive: nilotinib 0.051 | [1] -0.073 | dasatinib 0.008 | [2] 0.04 | [3] -0.038 | quisinostat 0.091 | tipifarnib 0 | [4] -0.04 | [5] -0.016 | [6] -0.029

THOC3 (UniProt Q96J01)
inactive: nilotinib 0.029 | [1] -0.011 | dasatinib 0.007 | [2] 0.033 | [3] 0.041 | quisinostat 0.035 | tipifarnib 0.033 | [4] -0.023 | [5] -0.014 | [6] 0.002

TIMP1 (UniProt P01033)
inactive: nilotinib -0.006 | [1] -0.007 | dasatinib 0.036 | [2] 0.001 | [3] -0.034 | quisinostat -0.036 | tipifarnib -0.001 | [4] -0.019 | [5] 0.008 | [6] -0.037

TLCD4 (UniProt Q96MV1)
inactive: nilotinib 0.061 | [1] 0.064 | dasatinib 0.065 | [2] 0 | [3] 0.011 | quisinostat 0.204 | tipifarnib -0.028 | [4] -0.047 | [5] -0.049 | [6] 0.025

TMEM164 (UniProt Q5U3C3)
inactive: nilotinib 0.06 | [1] -0.009 | dasatinib -0.087 | [2] 0.162 | [3] -0.041 | quisinostat -0.404 | tipifarnib -0.055 | [4] 0.1 | [5] 0.083 | [6] -0.036

TIMM23 (UniProt O14925)
inactive: nilotinib 0.019 | [1] 0.056 | dasatinib 0.013 | [2] 0.027 | [3] -0.053 | quisinostat -0.05 | tipifarnib -0.016 | [4] 0.029 | [5] 0.042 | [6] 0.058

TMEM185B (UniProt Q9H7F4)
inactive: nilotinib 0.037 | [1] 0.048 | dasatinib -0.081 | [2] -0.092 | [3] 0.195 | quisinostat -0.061 | tipifarnib 0.083 | [4] 0.013 | [5] -0.046 | [6] 0.049

THYN1 (UniProt Q9P016)
inactive: nilotinib 0.005 | [1] 0.035 | dasatinib -0.019 | [2] 0.019 | [3] 0.022 | quisinostat 0.027 | tipifarnib 0.004 | [4] 0.001 | [5] -0.002 | [6] -0.006

TMEM160 (UniProt Q9NX00)
inactive: nilotinib 0.183 | [1] -0.259 | dasatinib 0.082 | [2] 0.01 | [3] -0.084 | quisinostat 0.003 | tipifarnib -0.399 | [4] 0.024 | [5] -0.029 | [6] -0.006

THRAP3 (UniProt Q9Y2W1)
inactive: nilotinib 0 | [1] -0.027 | dasatinib -0.025 | [2] -0.003 | [3] 0.033 | quisinostat -0.025 | tipifarnib 0.045 | [4] -0.01 | [5] 0.011 | [6] 0.036

TMEM165 (UniProt Q9HC07)
inactive: nilotinib -0.067 | [1] 0.033 | dasatinib 0.023 | [2] 0.044 | [3] 0.033 | quisinostat -0.039 | tipifarnib 0 | [4] 0.098 | [5] 0.02 | [6] 0.005

TMCO1 (UniProt Q9UM00)
inactive: nilotinib -0.08 | [1] -0.055 | dasatinib -0.002 | [2] 0.073 | [3] 0.011 | quisinostat 0.13 | tipifarnib -0.017 | [4] 0.023 | [5] 0.02 | [6] 0.026

TICAM2 isoform 2 (UniProt Q86XR7)
inactive: nilotinib -0.007 | [1] -0.042 | dasatinib 0.007 | [2] -0.07 | [3] 0.002 | quisinostat -0.044 | tipifarnib 0.006 | [4] 0.008 | [5] -0.005 | [6] -0.029

TLN1 (UniProt Q9Y490)
inactive: nilotinib -0.004 | [1] 0.002 | dasatinib -0.006 | [2] -0.009 | [3] 0.007 | quisinostat 0.014 | tipifarnib 0.008 | [4] -0.011 | [5] -0.004 | [6] 0.005

Reprinted from the results shown (2 entries):
TICAM2 isoform 2 (UniProt Q86XR7)
inactive: nilotinib -0.007 | [1] -0.042 | dasatinib 0.007 | [2] -0.07 | [3] 0.002 | quisinostat -0.044 | tipifarnib 0.006 | [4] 0.008 | [5] -0.005 | [6] -0.029

TLN1 (UniProt Q9Y490)
inactive: nilotinib -0.004 | [1] 0.002 | dasatinib -0.006 | [2] -0.009 | [3] 0.007 | quisinostat 0.014 | tipifarnib 0.008 | [4] -0.011 | [5] -0.004 | [6] 0.005

Following part:

TMEM109 (UniProt Q9BVC6)
inactive: nilotinib -0.016 | [1] 0.002 | dasatinib 0.01 | [2] 0.018 | [3] -0.024 | quisinostat 0.005 | tipifarnib -0.002 | [4] -0.013 | [5] -0.006 | [6] -0.033

TK1 (UniProt P04183)
inactive: nilotinib -0.009 | [1] 0.002 | dasatinib 0.004 | [2] 0.003 | [3] -0.009 | quisinostat -0.03 | tipifarnib 0.015 | [4] -0.005 | [5] -0.043 | [6] -0.003

THUMPD2 (UniProt Q9BTF0)
inactive: nilotinib -0.017 | [1] -0.021 | dasatinib -0.006 | [2] 0.034 | [3] 0.095 | quisinostat -0.041 | tipifarnib 0.023 | [4] 0.032 | [5] 0.047 | [6] -0.011

THNSL1 (UniProt Q8IYQ7)
inactive: nilotinib -0.057 | [1] 0.04 | dasatinib -0.048 | [2] 0.057 | [3] 0.077 | quisinostat -0.025 | tipifarnib -0.009 | [4] -0.021 | [5] -0.005 | [6] 0.032

TMEM179B (UniProt Q7Z7N9)
inactive: nilotinib 0 | [1] 0.169 | dasatinib 0.068 | [2] 0.239 | [3] -0.095 | quisinostat -0.022 | tipifarnib -0.138 | [4] -0.085 | [5] -0.01 | [6] 0.006

TM9SF1 (UniProt O15321)
inactive: nilotinib -0.028 | [1] 0.061 | dasatinib 0.004 | [2] 0.039 | [3] -0.04 | quisinostat 0.076 | tipifarnib 0.061 | [4] -0.002 | [5] 0.007 | [6] -0.043

TMC6 (UniProt Q7Z403)
inactive: nilotinib 0.051 | [1] -0.072 | [2] -0.019 | quisinostat -0.085 | tipifarnib 0.09 | [4] 0.036 | [5] -0.153 | [6] 0.017

TLK2 isoform 2 (UniProt Q86UE8)
inactive: nilotinib -0.008 | [1] 0.243 | dasatinib -0.004 | [2] 0.162 | [3] 0.007 | quisinostat -0.099 | tipifarnib 0.005 | [4] 0.073 | [5] 0.048 | [6] -0.035

TIMM29 (UniProt Q9BSF4)
inactive: nilotinib -0.03 | [1] 0.005 | dasatinib -0.008 | [2] 0.015 | [3] -0.044 | quisinostat 0.069 | tipifarnib 0.018 | [4] -0.029 | [5] 0 | [6] -0.018

TIPIN (UniProt Q9BVW5)
inactive: nilotinib -0.072 | [1] 0.029 | dasatinib 0.002 | [2] -0.026 | [3] 0.002 | quisinostat 0.023 | tipifarnib -0.074 | [4] -0.038 | [5] -0.076 | [6] 0.057

TK1 (UniProt K7ERV3)
inactive: nilotinib -0.024 | [1] -0.134 | dasatinib -0.114 | [2] 0.086 | [3] 0.02 | quisinostat -0.059 | tipifarnib 0.059 | [4] 0.122 | [6] -0.016

TMBIM1 (UniProt Q969X1)
inactive: nilotinib 0.015 | [1] -0.076 | dasatinib -0.066 | [2] -0.026 | [3] 0 | quisinostat -0.067 | tipifarnib -0.006 | [4] 0.023 | [5] -0.053 | [6] -0.031

TMED2 (UniProt Q15363)
inactive: nilotinib 0.017 | [1] -0.02 | dasatinib 0.005 | [2] 0.002 | [3] -0.004 | quisinostat 0.095 | tipifarnib -0.034 | [4] 0.007 | [5] 0 | [6] -0.02
